From doi:10.1101/740472

Chains of the proteins cited; added tags and fusions are not shown. Residues count along the entry.
UniProt Q14517, residues 22-4588: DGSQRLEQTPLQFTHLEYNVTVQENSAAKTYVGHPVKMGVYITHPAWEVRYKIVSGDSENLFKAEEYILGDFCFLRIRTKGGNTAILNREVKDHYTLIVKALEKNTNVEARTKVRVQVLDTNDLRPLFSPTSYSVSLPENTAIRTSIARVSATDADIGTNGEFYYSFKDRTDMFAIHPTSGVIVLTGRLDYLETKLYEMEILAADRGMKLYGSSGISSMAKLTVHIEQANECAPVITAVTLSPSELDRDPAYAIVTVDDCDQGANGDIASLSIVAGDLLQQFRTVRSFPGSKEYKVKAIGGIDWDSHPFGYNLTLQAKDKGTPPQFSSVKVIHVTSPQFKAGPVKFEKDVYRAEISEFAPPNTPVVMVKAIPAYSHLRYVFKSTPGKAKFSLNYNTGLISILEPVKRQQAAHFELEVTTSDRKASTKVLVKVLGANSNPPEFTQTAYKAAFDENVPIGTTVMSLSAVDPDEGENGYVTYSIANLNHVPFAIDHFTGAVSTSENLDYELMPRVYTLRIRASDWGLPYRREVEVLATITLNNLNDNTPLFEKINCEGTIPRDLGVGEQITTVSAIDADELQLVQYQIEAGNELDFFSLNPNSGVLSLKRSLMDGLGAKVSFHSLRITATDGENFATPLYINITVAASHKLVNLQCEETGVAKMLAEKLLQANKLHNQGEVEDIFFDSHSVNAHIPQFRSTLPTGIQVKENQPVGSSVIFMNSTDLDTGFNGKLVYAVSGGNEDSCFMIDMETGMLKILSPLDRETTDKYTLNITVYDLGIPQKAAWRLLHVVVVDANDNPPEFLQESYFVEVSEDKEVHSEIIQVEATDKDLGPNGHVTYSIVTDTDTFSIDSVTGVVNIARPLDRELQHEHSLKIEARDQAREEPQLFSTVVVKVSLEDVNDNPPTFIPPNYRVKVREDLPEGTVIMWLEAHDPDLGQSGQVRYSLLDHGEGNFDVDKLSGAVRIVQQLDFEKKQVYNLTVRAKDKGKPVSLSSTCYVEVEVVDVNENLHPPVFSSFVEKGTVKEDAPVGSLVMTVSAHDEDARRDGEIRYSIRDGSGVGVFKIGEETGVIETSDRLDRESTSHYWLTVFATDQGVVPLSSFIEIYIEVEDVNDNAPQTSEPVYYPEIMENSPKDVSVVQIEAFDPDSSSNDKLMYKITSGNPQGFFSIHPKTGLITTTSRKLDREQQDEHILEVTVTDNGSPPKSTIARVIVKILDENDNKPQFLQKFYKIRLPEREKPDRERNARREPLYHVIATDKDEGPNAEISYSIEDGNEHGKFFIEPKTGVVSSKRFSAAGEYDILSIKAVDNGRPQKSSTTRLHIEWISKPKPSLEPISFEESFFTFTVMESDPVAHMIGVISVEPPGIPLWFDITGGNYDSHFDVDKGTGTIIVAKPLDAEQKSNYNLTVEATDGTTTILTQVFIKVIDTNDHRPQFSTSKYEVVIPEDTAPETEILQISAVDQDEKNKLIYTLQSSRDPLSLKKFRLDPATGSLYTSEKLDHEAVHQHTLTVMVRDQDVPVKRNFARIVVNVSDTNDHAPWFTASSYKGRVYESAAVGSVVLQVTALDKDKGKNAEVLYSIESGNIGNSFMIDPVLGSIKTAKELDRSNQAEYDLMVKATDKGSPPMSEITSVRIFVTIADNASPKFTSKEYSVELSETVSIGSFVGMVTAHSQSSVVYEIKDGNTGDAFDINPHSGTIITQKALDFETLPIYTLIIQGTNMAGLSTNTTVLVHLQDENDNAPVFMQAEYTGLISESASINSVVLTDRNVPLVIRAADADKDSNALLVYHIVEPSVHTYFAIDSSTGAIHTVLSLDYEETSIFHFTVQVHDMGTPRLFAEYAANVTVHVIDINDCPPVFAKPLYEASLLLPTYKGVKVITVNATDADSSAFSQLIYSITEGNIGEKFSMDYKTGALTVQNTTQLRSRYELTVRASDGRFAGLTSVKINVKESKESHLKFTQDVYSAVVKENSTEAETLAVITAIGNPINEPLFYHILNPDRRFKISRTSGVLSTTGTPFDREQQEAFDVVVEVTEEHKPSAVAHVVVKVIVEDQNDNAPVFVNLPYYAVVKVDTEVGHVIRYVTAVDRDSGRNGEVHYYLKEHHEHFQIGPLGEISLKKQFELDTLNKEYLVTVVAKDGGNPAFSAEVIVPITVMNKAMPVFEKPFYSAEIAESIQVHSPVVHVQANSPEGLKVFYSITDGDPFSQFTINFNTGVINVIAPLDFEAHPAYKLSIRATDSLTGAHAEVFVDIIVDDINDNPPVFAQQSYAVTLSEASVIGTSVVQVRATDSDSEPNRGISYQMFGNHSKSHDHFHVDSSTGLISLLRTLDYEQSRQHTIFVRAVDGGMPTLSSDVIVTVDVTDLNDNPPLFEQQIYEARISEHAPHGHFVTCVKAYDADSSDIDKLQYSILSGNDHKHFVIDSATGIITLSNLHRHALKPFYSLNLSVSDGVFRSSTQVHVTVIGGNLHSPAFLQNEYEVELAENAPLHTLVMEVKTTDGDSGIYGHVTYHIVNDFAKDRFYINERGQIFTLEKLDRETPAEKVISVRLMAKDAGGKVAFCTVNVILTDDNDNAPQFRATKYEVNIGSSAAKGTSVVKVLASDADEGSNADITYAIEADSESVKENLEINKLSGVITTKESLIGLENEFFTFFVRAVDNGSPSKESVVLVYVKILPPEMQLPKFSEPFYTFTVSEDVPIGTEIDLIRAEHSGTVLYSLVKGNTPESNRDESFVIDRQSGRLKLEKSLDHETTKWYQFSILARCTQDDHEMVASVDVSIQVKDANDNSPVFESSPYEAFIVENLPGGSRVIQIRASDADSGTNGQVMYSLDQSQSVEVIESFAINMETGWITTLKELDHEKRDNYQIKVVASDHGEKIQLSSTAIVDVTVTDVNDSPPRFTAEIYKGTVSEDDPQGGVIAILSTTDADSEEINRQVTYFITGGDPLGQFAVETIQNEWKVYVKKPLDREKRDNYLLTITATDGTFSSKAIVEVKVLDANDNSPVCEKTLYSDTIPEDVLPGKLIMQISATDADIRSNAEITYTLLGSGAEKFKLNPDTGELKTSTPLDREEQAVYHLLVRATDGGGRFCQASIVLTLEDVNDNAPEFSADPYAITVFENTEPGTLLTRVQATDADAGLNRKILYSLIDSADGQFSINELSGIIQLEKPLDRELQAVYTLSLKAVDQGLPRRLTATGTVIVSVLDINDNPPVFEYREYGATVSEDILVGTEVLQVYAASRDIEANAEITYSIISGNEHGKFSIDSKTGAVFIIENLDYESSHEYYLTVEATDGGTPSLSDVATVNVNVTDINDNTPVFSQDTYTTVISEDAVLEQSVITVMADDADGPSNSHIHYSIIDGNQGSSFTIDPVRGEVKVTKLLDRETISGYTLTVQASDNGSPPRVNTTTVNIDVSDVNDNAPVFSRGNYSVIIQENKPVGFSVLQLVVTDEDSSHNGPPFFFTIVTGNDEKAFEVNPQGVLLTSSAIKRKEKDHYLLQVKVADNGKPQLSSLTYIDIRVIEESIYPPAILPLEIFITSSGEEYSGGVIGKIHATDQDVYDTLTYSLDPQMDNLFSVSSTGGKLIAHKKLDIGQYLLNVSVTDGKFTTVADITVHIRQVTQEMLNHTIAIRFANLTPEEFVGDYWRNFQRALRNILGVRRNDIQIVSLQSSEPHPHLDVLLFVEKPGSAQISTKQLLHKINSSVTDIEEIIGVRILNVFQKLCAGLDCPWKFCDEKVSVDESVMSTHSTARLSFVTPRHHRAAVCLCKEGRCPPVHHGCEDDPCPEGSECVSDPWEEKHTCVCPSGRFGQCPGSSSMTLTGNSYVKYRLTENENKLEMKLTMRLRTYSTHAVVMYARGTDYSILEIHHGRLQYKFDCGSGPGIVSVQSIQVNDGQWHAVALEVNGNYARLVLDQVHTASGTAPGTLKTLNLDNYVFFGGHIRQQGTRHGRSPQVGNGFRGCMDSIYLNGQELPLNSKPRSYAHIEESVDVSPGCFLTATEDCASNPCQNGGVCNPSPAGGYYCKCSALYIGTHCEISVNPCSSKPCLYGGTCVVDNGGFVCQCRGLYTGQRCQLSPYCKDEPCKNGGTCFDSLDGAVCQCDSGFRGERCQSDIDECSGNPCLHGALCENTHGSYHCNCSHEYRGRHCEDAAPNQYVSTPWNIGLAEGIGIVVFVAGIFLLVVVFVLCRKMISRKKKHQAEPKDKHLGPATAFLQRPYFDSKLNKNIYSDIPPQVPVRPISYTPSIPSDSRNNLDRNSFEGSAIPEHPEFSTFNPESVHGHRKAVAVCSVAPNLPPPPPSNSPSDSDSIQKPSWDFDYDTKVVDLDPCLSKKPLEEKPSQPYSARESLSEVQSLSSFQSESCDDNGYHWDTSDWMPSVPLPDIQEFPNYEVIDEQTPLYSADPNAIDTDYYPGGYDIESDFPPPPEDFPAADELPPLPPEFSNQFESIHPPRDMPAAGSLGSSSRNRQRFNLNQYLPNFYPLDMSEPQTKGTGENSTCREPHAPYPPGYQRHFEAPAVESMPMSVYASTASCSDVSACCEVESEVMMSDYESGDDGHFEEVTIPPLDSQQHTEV
UniProt O75015, residues 17-200: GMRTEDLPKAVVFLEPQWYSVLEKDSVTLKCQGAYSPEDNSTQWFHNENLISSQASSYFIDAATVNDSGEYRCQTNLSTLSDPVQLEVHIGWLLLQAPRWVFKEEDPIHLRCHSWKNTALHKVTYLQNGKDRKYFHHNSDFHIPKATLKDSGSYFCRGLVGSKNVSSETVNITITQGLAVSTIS

T1: HA-tagged human ISLR (hISLR-HA) (human) (UniProt O14498)
T1 sequence: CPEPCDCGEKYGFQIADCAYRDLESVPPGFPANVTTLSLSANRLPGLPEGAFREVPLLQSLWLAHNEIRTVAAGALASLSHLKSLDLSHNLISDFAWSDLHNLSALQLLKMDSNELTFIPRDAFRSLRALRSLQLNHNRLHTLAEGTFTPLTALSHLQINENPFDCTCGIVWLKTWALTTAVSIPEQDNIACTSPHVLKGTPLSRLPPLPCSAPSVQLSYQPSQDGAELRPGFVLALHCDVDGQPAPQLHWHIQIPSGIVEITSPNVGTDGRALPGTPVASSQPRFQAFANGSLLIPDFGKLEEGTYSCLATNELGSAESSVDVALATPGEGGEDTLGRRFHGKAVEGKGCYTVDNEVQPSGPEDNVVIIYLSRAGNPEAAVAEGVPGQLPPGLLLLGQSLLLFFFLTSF

B1: MAGT1 (protein, UniProt Q9H0U3 30-335)
chain: QRKKEMVLSEKVSQLMEWTNKRPVIRMNGDKFRRLVKAPPRNYSVIVMFTALQLHRQCVVCKQADEEFQILANSWRYSSAFTNRIFFAMVDFDEGSDVFQMLNMNSAPTFINFPAKGKPKRGDTYELQVRGFSAEQIARWIADRTDVNIRVIRPPNYAGPLMLGLLLAVIGGLVYLRRSNMEFLFNKTGWAFAALCFVLAMTSGQMWNHIRGPPYAHKNPHTGHVNYIHGSSQAQFVAETHIVLLFNGGVTLGMVLLCEAATSDMDIGKRKIMCVAGIGLVVLFFSWMLSIFRSKYHGYPYSFLMS

What follows are molecules tested against T1, HA-tagged human ISLR (hISLR-HA) (human) (assay: affinity purification with mass spectrometry).

binding, binds:
FAT1 (transmembrane protocadherin), endogenous (from UniProt Q14517 22-4588)
FCGR3B (from UniProt O75015 17-200)
B1

Results are given in words; binding and its absence hold for the method and conditions named. In cells and extracts the contact can be indirect. Here binding means that the protein was enriched with, or labelled near, the bait; the list need not be complete. Where a sequence is shown, tags or fusion partners need not be part of it.
